In US10364466B2, “Biological markers for identifying patients for treatment with VEGF antagonists” (Genentech, Inc., priority 2012, dated 2019):
Entries after “also recorded” stand apart in the source; their conditions may differ. At least one compound was matched to its structure with a doubt left.

Columns and labels:
proxVDV gene expression = assay: qRT-PCR of proxVDV gene expression in MDA-MB-231 xenograft tumors 8, 16 or 72 hours after treatment; assay type: in vivo, mouse; details: MDA-MB-231 tumors
MDA-MB-231 tumors = assay: Micro-vascular density (MECA-32/CD31 staining) in MDA-MB-231 tumors; assay type: in vivo, mouse; details: 72 hours post-treatment

| SMILES | proxVDV gene expression downregulation (proxVDV gene expression; 8 hours after treatment) | proxVDV gene expression downregulation (proxVDV gene expression; 16 hours post-treatment) | proxVDV gene expression downregulation (proxVDV gene expression; 72 hours after treatment) | MVD in tumors (MDA-MB-231 tumors) | proxVDV gene expression downregulation (proxVDV gene expression; 8 hours after treatment, listed as Axitinib) |
| --- | --- | --- | --- | --- | --- |
| CCN(CC)CCNC(=O)c1c(C)[nH]c(/C=C2\C(=O)Nc3ccc(F)cc32)c1C [sunitinib] | No significant changes; also recorded: did not have evident activity | apparent | increased | efficiently reduces MVD | – |
| CNC(=O)c1ccccc1Sc1ccc2c(/C=C/c3ccccn3)n[nH]c2c1 [axitinib] | No significant changes | apparent | increased | efficiently reduces MVD | did not have evident activity |
